Measured values reported in US20080050387A1, “Non-Androgen Dependent Roles for Androgen Receptor and Non-Androgen Related Inhibitors of Androgen Receptor” (priority 2003, published 2008).
Results are given in words; binding and its absence hold for the method and conditions named. For part of these data: In cells and extracts the contact can be indirect. Some binding calls cover weakened binding; strength is not graded here.

The chains behind the UniProt entries cited, without tags or fusion partners. Where a name states a change or a piece, a line headed by the entry shows the natural chain unless it says otherwise.
UniProt P10275: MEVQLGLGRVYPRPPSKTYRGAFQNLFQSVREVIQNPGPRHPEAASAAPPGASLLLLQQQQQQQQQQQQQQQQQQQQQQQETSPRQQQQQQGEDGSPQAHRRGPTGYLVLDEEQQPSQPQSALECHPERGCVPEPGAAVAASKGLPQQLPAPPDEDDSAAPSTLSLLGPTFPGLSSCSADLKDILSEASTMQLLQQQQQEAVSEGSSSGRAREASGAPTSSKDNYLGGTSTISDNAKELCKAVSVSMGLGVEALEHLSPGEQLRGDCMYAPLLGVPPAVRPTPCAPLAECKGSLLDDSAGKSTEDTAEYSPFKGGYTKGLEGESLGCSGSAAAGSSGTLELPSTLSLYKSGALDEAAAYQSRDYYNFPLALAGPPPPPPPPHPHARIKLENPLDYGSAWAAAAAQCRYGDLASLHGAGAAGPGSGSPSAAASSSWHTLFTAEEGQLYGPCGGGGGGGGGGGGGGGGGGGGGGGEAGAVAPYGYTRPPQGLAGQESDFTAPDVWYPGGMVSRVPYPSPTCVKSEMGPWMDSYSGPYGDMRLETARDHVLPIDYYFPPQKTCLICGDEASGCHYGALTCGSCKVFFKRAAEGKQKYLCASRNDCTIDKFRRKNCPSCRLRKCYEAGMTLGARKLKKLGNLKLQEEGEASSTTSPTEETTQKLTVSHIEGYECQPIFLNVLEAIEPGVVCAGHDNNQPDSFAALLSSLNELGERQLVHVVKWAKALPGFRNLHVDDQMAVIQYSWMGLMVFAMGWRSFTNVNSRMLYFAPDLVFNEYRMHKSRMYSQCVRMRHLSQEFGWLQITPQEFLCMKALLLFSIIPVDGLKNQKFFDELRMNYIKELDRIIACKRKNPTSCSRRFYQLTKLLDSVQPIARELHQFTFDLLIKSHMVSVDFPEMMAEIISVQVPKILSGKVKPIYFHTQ

What was measured:
[1] = target: VP16-AR containing the residues 37 to 919 (human) (UniProt P10275); experiment: mammalian two-hybrid in PC-3 cells
[2] = target: AR DBD-LBD (human) (UniProt P10275); experiment: yeast two-hybrid, liquid β-gal assay, bait GAL4 DBD-AR-DBD-LBD, DHT
[3] = target: AR DBD-LBD (human) (UniProt P10275); experiment: yeast two-hybrid (AH109), GAL4-AR-DBD-LBD + f-hRad9 fused to an activation domain, 10 nM DHT
[4] = target: AR ligand-binding domain (AR LBD) (human) (UniProt P10275); experiment: yeast two-hybrid (AH109), GAL4-AR-LBD + f-hRad9 fused to an activation domain, 10 nM DHT; weaker than with AR DBD-LBD
[5] = target: AR ligand-binding domain (AR LBD) (human) (UniProt P10275); experiment: summary of Example 4
[6] = target: AR ligand-binding domain (AR LBD) (human) (UniProt P10275); experiment: GST pull-down: GST-hRad9 with 35S-labeled AR domains
[7] = target: androgen receptor (AR), full length (human) (UniProt P10275); experiment: mammalian two-hybrid and co-immunoprecipitation (FIG. 25)
[8] = target: AR ligand-binding domain (AR LBD) (human) (UniProt P10275); experiment: GST pull-down: GST-hRad9 with 35S-labeled AR LBD, with or without DHT
[9] = target: AR DBD-LBD (human) (UniProt P10275); experiment: GST pull-down: GST-hRad9 with 35S-labeled AR-DBD-LBD, with or without DHT
[10] = target: androgen receptor (AR), full length (human) (UniProt P10275); experiment: co-immunoprecipitation of endogenous proteins from CWR22R cells with anti-AR antibody, anti-hRad9 blot
[11] = target: androgen receptor (AR), full length (human) (UniProt P10275); experiment: co-immunoprecipitation with anti-Flag antibody from 293T cells transfected with AR and Flag-hRad9, anti-AR blot
[12] = target: AR ligand-binding domain (AR LBD) (human) (UniProt P10275); experiment: restatement of the two-hybrid and pull-down results

Measured: binding

B1: C-terminus of ARA54 (protein, UniProt Q9UBS8 361-474, looked up)
chain: RNEYLQADEANKRLLDQRYGKRVIQKALEEMESKEWLEKNSKSCPCCGTPIEKLDGCNKMTCTGCMQYFCWICMGSLSRANPYKHFNDPGSPCFNRLFYAVDVDDDIWEDEVED
binds: [1]

B2: f-hRad9, fragment of hRad9 isolated from yeast (aa 327-391) (protein)
chain: LSPGPQPPKSPGPHSEEEDEAEPSTVPGTPPPKKFRSLFFGSILAPVRSPQGPSPVLAEDSEGEG
binds: [2] | [3] | [4]

B3: human checkpoint protein hRad9, full length (protein)
chain: MKCLVTGGNVKVLGKAVHSLSRIGDELYLEPLEDGLSLRTVNSSRSAYACFLFAPLFFQQYQAATPGQDLLRCKILMKSFLSVFRSLAMLEKTVEKCCISLNGRSSRLVVQLHCKFGVRKTHNLSFQDCESLQAVFDPASCPHMLRAPARVLGEAVLPFSPALAEVTLGIGRGRRVILRSYHEEEADSTAKAMVTEMCLGEEDFQQLQAQEGVAITFCLKEFRGLLSFAESANLNLSIHFDAPGRPAIFTIKDSLLDGHFVLATLSDTDSHSQDLGSPERHQPVPQLQAHSTPHPDDFANDDIDSYMIAMETTIGNEGSRVLPSISLSPGPQPPKSPGPHSEEEDEAEPSTVPGTPPPKKFRSLFFGSILAPVRSPQGPSPVLAEDSEGEG
binds: [5] | [6] | [7] | [8] | [9] | [10] | [11]

B4: C-terminus of hRad9 (aa 269-391) (protein)
chain: DSHSQDLGSPERHQPVPQLQAHSTPHPDDFANDDIDSYMIAMETTIGNEGSRVLPSISLSPGPQPPKSPGPHSEEEDEAEPSTVPGTPPPKKFRSLFFGSILAPVRSPQGPSPVLAEDSEGEG
binds: [12]
